The values that follow come from paper PMC11802874, “The hypolipidemic effect of MI-883, the combined CAR agonist/ PXR antagonist, in diet-induced hypercholesterolemia model” (Nature Communications, 2025).

Results are given in words; binding and its absence hold for the method and conditions named. For some assays here: A result given as binding can be weak or reduced; the word gives no strength. Tags and fused reporters may be left off the sequences shown.

Assay [1] deals with GAL4-DBD/NCOR2-RID (residues 1109–1330). Briefly: two-hybrid; mammalian two-hybrid PXR-corepressor release assay in HepG2 cells: GAL4-DBD/NCOR2-RID and VP16-AD/PXR(108-434) with RXRα expression plasmid, pGL4-G5 reporter; cells treated with MI-883 for 24 h.
For assay [2] the target is unchanged. As to the kind of experiment: two-hybrid; mammalian two-hybrid PXR-corepressor release assay in HepG2 cells: GAL4-DBD/NCOR2-RID and VP16-AD/PXR(108-434) with RXRα expression plasmid, pGL4-G5 reporter; vehicle.

B1: VP16-AD/PXR(108-434) (domain or fragment, UniProt O75469 108-434)
chain: KKEMIMSDEAVEERRALIKRKKSERTGTQPLGVQGLTEEQRMMIRELMDAQMKTFDTTFSHFKNFRLPGVLSSGCELPESLQAPSREEAAKWSQVRKDLCSLKVSLQLRGEDGSVWNYKPPADSGGKEIFSLLPHMADMSTYMFKGIISFAKVISYFRDLPIEDQISLLKGAAFELCQLRFNTVFNAETGTWECGRLSYCLEDTAGGFQQLLLEPMLKFHYMLKKLQLHEEEYVLMQAISLFSPDRPGVLQHRVVDQLQEQFAITLKSYIECNRPQPAHRFLFLKIMAMLTELRSINAQHTQRLLRIQDIHPFATPLMQELFGITGS
Regarding B1, the values for the binding entry in assay [1] and in assay [2] were “no binding (only with MI-883)” and “binds”, respectively.
